The supplement of paper PMC4604168 (melanoma cell lines)
The list shows a part of the results. Repeats are few or missing, and single values can be far off.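 Cells were imaged in 1,536-well plates, and nuclei stained with an antibody against cleaved PARP were counted against all DNA-stained nuclei to give the apoptosis fraction. Screening doses were chosen to leave most cells alive, and resting and induced cleaved-PARP levels differ strongly between cell lines.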

Tests used:
Assay in all cases: cleaved PARP positive nuclei fraction relative to DMSO control; melanoma cells; higher = more apoptosis
Settings in all cases: library dose: low library concentration; 72 h
[1] = tested on: MZ2-MEL
[2] = tested on: MeWo
[3] = tested on: RPMI7951
[4] = tested on: RVH-421
[5] = tested on: SkMel28
[6] = tested on: SkMel2
[7] = tested on: SkMel30
[8] = tested on: SkMel5
[9] = tested on: UACC257
[10] = tested on: UACC62
[11] = tested on: WM115
[12] = tested on: WM1716
[13] = tested on: WM1745
[14] = tested on: WM3526
[15] = tested on: WM3619
[16] = tested on: WM451Lu

Structure (SMILES)	cleaved PARP positive nuclei fraction [1] [%]	cleaved PARP positive nuclei fraction [2] [%]	cleaved PARP positive nuclei fraction [3] [%]	cleaved PARP positive nuclei fraction [4] [%]	cleaved PARP positive nuclei fraction [5] [%]	cleaved PARP positive nuclei fraction [6] [%]	cleaved PARP positive nuclei fraction [7] [%]	cleaved PARP positive nuclei fraction [8] [%]	cleaved PARP positive nuclei fraction [9] [%]	cleaved PARP positive nuclei fraction [10] [%]	cleaved PARP positive nuclei fraction [11] [%]	cleaved PARP positive nuclei fraction [12] [%]	cleaved PARP positive nuclei fraction [13] [%]	cleaved PARP positive nuclei fraction [14] [%]	cleaved PARP positive nuclei fraction [15] [%]	cleaved PARP positive nuclei fraction [16] [%]
Cc1ccc(Nc2nccc(N(C)c3ccc4c(C)n(C)nc4c3)n2)cc1S(N)(=O)=O [Pazopanib] + CC(C)(C)c1cnc(CSc2cnc(NC(=O)C3CCNCC3)s2)o1 [SNS-032] (first compound 0.4 µM, partner dose 0.01 µM)	122	54.7	160	204	115	115	55.6	53.9	120	181	108	84.7	94.6	1550	95.5	159
CC[C@]1(O)C[C@H]2CN(CCc3c([nH]c4ccccc34)[C@@](C(=O)OC)(c3cc4c(cc3OC)N(C=O)[C@H]3[C@@](O)(C(=O)OC)[C@H](OC(C)=O)[C@]5(CC)C=CCN6CC[C@]43[C@@H]65)C2)C1 [vincristine] + C=CCn1c(=O)c2cnc(Nc3ccc(N4CCN(C)CC4)cc3)nc2n1-c1cccc(C(C)(C)O)n1 [MK1775] (first compound 0.0001 µM, partner dose 0.02 µM)	222	134	196	118	211	61.1	102	65.3	279	361	1220	348	119	78.2	247	96
Cc1cc(Nc2cc(N3CCN(C)CC3)nc(Sc3ccc(NC(=O)C4CC4)cc3)n2)n[nH]1 [Tozasertib] + COc1cc(N2CCC(N3CCN(C)CC3)CC2)ccc1Nc1ncc(Cl)c(Nc2ccccc2S(=O)(=O)C(C)C)n1 [NVP-TAE684] (first compound 0.006 µM, partner dose 0.08 µM)	126	102	76.6	22.4	92.4	109	93.2	76.4	105	145	64.1	38.3	119	87.8	104	148
Cc1cc(Nc2cc(N3CCN(C)CC3)nc(Sc3ccc(NC(=O)C4CC4)cc3)n2)n[nH]1 [Tozasertib] + CO[C@@H]1[C@H](N(C)C(=O)c2ccccc2)C[C@H]2O[C@]1(C)n1c3ccccc3c3c4c(c5c6ccccc6n2c5c31)C(=O)NC4 [Midostaurin] (first compound 0.006 µM, partner dose 0.08 µM)	105	267	185	192	105	83.1	121	80.4	211	74.8	174	51.7	124	56.1	111	56
O=C(/C=C/c1cccnc1)NCCCCC1CCN(C(=O)c2ccccc2)CC1 + O=C(O)C(=O)Nc1sc2c(c1C(=O)O)CCNC2 [TCS401] (first compound 0.01 µM, partner dose 1.66667 µM)	332	43.9	92.8	156	108	240	92	175	106	113	75.1	78.5	94.2	149	107	78.6
CCCCCCCCCCCCCCCCCCOP(=O)([O-])OC1CC[N+](C)(C)CC1 [Perifosine] + CN(NC(=O)CC(=O)NN(C)C(=S)c1ccccc1)C(=S)c1ccccc1 [STA4783] (first compound 0.4 µM, partner dose 0.006 µM)	115	29.2	202	22.9	64.3	51.8	63.1	206	58.2	147	206	378	130	41.6	101	45.5
O=C(Nc1cc(C(F)(F)F)cc(C(F)(F)F)c1)c1cc(Cl)ccc1O + Cc1cc(N2CCOCC2)cc2[nH]c(-c3c(NC[C@@H](O)c4cccc(Cl)c4)cc[nH]c3=O)nc12 [BMS536924] (first compound 0.016 µM, partner dose 0.2 µM)	100	38.6	151	39	36.8	74.4	143	79.9	154	45.1	72.3	89.2	122	72.9	85.4	103
Cc1cn(-c2cc(NC(=O)c3ccc(C)c(Nc4nccc(-c5cccnc5)n4)c3)cc(C(F)(F)F)c2)cn1 [nilotinib] + CC(C)(C)c1cnc(CSc2cnc(NC(=O)C3CCNCC3)s2)o1 [SNS-032] (first compound 0.2 µM, partner dose 0.01 µM)	163	67.9	54.3	85.9	173	114	71.4	180	74	252	97.2	130	189	60.5	104	66.1
N#CC[C@H](C1CCCC1)n1cc(-c2ncnc3[nH]ccc23)cn1 [ruxolitinib] + COc1cc2c(Oc3ccc4[nH]c(C)cc4c3F)ncnc2cc1OCCCN1CCCC1 [cediranib] (first compound 1 µM, partner dose 0.4 µM)	99.1	200	48.7	149	141	155	133	141	44.7	88.4	22.4	50	87.5	40.5	71.7	112
O=c1[nH]nc(Sc2ncc([N+](=O)[O-])s2)n1-c1ccc2c(c1)OCCO2 + O=C(O)c1ccc(-c2c[nH]c3ncc(-c4ccccc4)cc23)cc1C1CCCC1 [GSK650394] (first compound 0.2 µM, partner dose 0.16 µM)	130	34.3	79.2	77.6	80.4	68.2	61.2	66.7	69.8	200	60.3	51.6	95	56.4	112	108
CC[C@]1(O)C[C@H]2CN(CCc3c([nH]c4ccccc34)[C@@](C(=O)OC)(c3cc4c(cc3OC)N(C=O)[C@H]3[C@@](O)(C(=O)OC)[C@H](OC(C)=O)[C@]5(CC)C=CCN6CC[C@]43[C@@H]65)C2)C1 [vincristine] + COc1cc2ncnc(Nc3ccc(Oc4ccccc4)cc3)c2cc1OC [SrcI1] (first compound 0.0001 µM, partner dose 2 µM)	101	249	71.1	93.7	2730	116	111	99.3	907	463	3450	127	125	89.1	208	532
O=C(Nc1cc(C(F)(F)F)cc(C(F)(F)F)c1)c1cc(Cl)ccc1O + COc1ccc(COc2ccc(Cc3cnc(N)nc3N)cc2OC)cc1 [GW2580] (first compound 0.016 µM, partner dose 1 µM)	37.6	54.4	148	84.6	276	53.5	37.4	94.3	99.4	226	74	42.9	72.2	69.8	105	79.6
CCCCCCCCCCCCCCCCCCOP(=O)([O-])OC1CC[N+](C)(C)CC1 [Perifosine] + Cc1cc([N+](=O)[O-])ccc1NS(=O)(=O)c1cc(Cl)ccc1Cl [FH535] (first compound 0.4 µM, partner dose 1 µM)	86.3	51.6	101	88.9	41.2	62.8	74.7	87.1	93	91	99.3	209	105	74.6	109	99.1
Cc1cc(Nc2cc(N3CCN(C)CC3)nc(Sc3ccc(NC(=O)C4CC4)cc3)n2)n[nH]1 [Tozasertib] + Oc1cc(-c2nc(-c3ccccc3)[nH]c2-c2ccncc2)ccc1Cl [L779450] (first compound 0.006 µM, partner dose 0.2 µM)	87.6	48.6	68.9	72.2	94	83.8	175	78.8	80.3	68.5	112	131	90.1	179	94.9	244
O=c1[nH]nc(Sc2ncc([N+](=O)[O-])s2)n1-c1ccc2c(c1)OCCO2 + CC(C)CCN1c2nc(Nc3cc(F)c(O)c(F)c3)ncc2N(C)C(=O)C1C [BID1870] (first compound 0.2 µM, partner dose 0.2 µM)	190	68.4	61.6	76.3	140	39.2	130	116	132	85.4	147	94.4	82	82.6	92.7	154
O=C(/C=C/c1cccnc1)NCCCCC1CCN(C(=O)c2ccccc2)CC1 + COc1ccc(-c2ccc3c(N4CCOCC4)nc(N4C[C@@H](C)O[C@@H](C)C4)nc3n2)cc1CO [KU0063794] (first compound 0.01 µM, partner dose 0.02 µM)	666	51.6	27.1	239	82.1	300	24.6	75.5	250	40.2	157	109	76.3	232	102	51.8
Cc1cn(-c2cc(NC(=O)c3ccc(C)c(Nc4nccc(-c5cccnc5)n4)c3)cc(C(F)(F)F)c2)cn1 [nilotinib] + CCCCCCCCCCCC1=C(O)C(=O)C=C(O)C1=O [Embelin] (first compound 0.2 µM, partner dose 1.2 µM)	85.3	37.8	199	131	40.9	99.5	39.7	153	140	29.3	83.5	74.9	91.8	37.5	86.4	296
CC[C@]1(O)C[C@H]2CN(CCc3c([nH]c4ccccc34)[C@@](C(=O)OC)(c3cc4c(cc3OC)N(C=O)[C@H]3[C@@](O)(C(=O)OC)[C@H](OC(C)=O)[C@]5(CC)C=CCN6CC[C@]43[C@@H]65)C2)C1 [vincristine] + CN(NC(=O)CC(=O)NN(C)C(=S)c1ccccc1)C(=S)c1ccccc1 [STA4783] (first compound 0.0001 µM, partner dose 0.006 µM)	74.8	208	221	167	374	98.9	124	166	142	518	3520	713	165	227	256	216

A second format for part of the listing above.
Structure (SMILES) | cleaved PARP positive nuclei fraction [1] [%] | cleaved PARP positive nuclei fraction [2] [%] | cleaved PARP positive nuclei fraction [3] [%] | cleaved PARP positive nuclei fraction [4] [%] | cleaved PARP positive nuclei fraction [5] [%] | cleaved PARP positive nuclei fraction [6] [%] | cleaved PARP positive nuclei fraction [7] [%] | cleaved PARP positive nuclei fraction [8] [%] | cleaved PARP positive nuclei fraction [9] [%] | cleaved PARP positive nuclei fraction [10] [%] | cleaved PARP positive nuclei fraction [11] [%] | cleaved PARP positive nuclei fraction [12] [%] | cleaved PARP positive nuclei fraction [13] [%] | cleaved PARP positive nuclei fraction [14] [%] | cleaved PARP positive nuclei fraction [15] [%] | cleaved PARP positive nuclei fraction [16] [%]
CC[C@]1(O)C[C@H]2CN(CCc3c([nH]c4ccccc34)[C@@](C(=O)OC)(c3cc4c(cc3OC)N(C=O)[C@H]3[C@@](O)(C(=O)OC)[C@H](OC(C)=O)[C@]5(CC)C=CCN6CC[C@]43[C@@H]65)C2)C1 [vincristine] + C=CCn1c(=O)c2cnc(Nc3ccc(N4CCN(C)CC4)cc3)nc2n1-c1cccc(C(C)(C)O)n1 [MK1775] (first compound 0.0001 µM, partner dose 0.02 µM) | 222 | 134 | 196 | 118 | 211 | 61.1 | 102 | 65.3 | 279 | 361 | 1220 | 348 | 119 | 78.2 | 247 | 96
Cc1cc(Nc2cc(N3CCN(C)CC3)nc(Sc3ccc(NC(=O)C4CC4)cc3)n2)n[nH]1 [Tozasertib] + COc1cc(N2CCC(N3CCN(C)CC3)CC2)ccc1Nc1ncc(Cl)c(Nc2ccccc2S(=O)(=O)C(C)C)n1 [NVP-TAE684] (first compound 0.006 µM, partner dose 0.08 µM) | 126 | 102 | 76.6 | 22.4 | 92.4 | 109 | 93.2 | 76.4 | 105 | 145 | 64.1 | 38.3 | 119 | 87.8 | 104 | 148
